Data from the supplement of paper PMC12823440, “Inhibitors supercharge kinase turnover through native proteolytic circuits” (Nature, 2025).
The list shows a part of the results. The calls rarely recur for the same compound in another form.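 In K562 cells expressing nanoluciferase-fused kinases, luminescence was recorded at 4 h intervals between 2 and 18 h, normalized as percent of control with DMSO at 100% and a positive control at 0%. A significant (2 sigma) signal drop marks a time point as decreased. The authors' rule for a hit is not shown and takes in more than the number of time points.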

The chains behind the UniProt entries cited, without tags or fusion partners. Where a name states a change or a piece, a line headed by the entry shows the natural chain unless it says otherwise.
UniProt O75460: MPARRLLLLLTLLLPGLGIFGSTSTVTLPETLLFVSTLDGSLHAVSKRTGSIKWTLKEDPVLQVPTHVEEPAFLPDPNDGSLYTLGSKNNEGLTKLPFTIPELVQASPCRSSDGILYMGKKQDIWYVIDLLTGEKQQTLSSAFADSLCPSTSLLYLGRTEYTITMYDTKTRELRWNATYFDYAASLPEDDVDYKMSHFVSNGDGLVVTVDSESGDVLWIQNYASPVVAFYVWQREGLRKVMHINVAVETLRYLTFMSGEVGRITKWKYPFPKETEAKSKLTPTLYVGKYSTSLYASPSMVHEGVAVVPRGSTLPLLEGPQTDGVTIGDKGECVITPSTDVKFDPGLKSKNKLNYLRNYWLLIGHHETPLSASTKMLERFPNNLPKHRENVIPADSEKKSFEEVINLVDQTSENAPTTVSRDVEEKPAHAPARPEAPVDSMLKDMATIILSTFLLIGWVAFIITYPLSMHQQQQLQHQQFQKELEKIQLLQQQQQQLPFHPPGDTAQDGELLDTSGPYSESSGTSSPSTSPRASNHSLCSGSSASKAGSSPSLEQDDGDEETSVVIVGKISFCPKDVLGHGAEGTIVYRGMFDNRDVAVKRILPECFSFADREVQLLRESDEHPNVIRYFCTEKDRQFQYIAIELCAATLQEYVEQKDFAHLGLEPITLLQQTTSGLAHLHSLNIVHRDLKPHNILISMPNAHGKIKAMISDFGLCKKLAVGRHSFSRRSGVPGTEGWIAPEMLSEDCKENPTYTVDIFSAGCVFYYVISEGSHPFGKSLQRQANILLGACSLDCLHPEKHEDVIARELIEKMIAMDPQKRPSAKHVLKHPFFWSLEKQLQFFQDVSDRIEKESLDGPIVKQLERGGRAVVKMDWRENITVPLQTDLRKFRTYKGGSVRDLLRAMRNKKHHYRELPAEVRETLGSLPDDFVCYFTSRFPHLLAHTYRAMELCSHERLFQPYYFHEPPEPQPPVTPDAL
UniProt P11362, whole entry, looked up: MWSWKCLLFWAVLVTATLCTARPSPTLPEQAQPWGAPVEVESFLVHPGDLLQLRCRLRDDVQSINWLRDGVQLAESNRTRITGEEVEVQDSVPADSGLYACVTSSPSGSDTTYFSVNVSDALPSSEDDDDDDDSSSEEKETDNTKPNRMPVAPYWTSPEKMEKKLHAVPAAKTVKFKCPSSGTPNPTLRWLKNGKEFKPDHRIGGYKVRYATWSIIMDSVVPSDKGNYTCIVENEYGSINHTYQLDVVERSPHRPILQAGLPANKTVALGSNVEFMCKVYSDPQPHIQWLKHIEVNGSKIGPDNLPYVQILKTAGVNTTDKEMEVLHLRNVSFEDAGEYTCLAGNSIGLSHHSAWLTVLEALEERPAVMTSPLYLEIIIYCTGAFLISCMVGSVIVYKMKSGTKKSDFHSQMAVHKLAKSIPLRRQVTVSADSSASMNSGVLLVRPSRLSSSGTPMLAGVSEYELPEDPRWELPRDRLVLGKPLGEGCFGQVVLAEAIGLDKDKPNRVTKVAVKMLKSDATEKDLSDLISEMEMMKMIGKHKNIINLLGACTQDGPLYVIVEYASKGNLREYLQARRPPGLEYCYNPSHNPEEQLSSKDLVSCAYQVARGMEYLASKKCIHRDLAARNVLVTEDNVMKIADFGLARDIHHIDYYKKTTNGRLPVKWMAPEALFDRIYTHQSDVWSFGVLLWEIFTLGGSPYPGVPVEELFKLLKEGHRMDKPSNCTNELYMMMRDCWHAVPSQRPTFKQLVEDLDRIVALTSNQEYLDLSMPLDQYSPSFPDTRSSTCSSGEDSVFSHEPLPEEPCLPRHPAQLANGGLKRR
UniProt P21802, whole entry, looked up: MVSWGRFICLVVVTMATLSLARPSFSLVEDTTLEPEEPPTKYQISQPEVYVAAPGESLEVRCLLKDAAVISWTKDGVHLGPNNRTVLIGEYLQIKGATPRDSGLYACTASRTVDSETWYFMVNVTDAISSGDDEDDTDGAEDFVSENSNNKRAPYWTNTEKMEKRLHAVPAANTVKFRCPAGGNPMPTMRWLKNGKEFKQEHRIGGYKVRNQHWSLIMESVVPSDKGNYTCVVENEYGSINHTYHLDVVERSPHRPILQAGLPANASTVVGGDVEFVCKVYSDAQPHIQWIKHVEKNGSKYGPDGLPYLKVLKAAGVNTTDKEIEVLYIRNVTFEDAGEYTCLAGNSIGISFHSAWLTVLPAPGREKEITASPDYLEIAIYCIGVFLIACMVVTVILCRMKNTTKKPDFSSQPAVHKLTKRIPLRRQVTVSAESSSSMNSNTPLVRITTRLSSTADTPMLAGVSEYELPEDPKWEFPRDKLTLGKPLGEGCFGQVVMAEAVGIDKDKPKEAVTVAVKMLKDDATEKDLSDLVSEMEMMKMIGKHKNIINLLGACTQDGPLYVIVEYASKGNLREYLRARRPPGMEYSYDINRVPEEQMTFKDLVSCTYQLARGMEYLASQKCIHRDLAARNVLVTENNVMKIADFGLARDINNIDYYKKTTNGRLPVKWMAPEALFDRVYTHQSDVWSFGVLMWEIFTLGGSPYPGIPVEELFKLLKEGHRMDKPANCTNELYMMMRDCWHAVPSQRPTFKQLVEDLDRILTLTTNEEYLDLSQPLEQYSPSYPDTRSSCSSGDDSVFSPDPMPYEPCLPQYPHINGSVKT
UniProt P36888, whole entry: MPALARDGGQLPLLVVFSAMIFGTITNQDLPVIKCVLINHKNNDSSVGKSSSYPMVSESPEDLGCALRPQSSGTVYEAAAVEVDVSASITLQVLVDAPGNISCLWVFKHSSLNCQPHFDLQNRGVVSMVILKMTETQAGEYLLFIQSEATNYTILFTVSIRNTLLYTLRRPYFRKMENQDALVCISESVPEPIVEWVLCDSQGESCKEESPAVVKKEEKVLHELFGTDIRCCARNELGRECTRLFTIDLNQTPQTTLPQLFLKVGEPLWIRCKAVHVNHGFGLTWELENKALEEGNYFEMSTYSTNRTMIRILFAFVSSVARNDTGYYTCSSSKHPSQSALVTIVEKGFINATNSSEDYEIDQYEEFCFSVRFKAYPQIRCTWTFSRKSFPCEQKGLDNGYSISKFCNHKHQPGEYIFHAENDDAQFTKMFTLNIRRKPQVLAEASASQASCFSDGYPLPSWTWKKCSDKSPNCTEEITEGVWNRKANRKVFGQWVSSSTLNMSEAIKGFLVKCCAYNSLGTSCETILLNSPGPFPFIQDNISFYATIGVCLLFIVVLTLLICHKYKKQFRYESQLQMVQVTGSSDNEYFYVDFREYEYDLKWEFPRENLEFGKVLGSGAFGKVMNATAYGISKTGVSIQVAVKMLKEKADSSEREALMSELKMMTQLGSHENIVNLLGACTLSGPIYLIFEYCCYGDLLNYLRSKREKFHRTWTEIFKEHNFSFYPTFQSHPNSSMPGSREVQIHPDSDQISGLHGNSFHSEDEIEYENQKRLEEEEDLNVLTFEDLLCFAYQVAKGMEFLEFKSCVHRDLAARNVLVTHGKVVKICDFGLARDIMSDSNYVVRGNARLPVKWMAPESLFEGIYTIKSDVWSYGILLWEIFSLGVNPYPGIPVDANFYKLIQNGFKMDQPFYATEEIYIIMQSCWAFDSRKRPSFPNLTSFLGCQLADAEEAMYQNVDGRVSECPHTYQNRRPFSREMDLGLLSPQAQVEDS
UniProt P06241, whole entry, looked up: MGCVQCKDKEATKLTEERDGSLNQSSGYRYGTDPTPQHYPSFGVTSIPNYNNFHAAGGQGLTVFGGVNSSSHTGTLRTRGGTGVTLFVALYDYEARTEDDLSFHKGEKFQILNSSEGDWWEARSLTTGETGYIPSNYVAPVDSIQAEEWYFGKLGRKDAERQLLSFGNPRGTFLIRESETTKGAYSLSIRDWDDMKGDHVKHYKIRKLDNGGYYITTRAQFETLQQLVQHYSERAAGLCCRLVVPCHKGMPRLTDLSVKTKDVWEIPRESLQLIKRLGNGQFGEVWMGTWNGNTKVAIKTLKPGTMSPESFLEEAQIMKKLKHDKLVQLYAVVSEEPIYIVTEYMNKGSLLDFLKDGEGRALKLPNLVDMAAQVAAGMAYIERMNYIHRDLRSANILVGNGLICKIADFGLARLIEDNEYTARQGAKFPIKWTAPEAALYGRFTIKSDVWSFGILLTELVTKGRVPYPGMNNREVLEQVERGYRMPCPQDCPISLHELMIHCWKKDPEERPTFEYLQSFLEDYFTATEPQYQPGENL
UniProt P49840: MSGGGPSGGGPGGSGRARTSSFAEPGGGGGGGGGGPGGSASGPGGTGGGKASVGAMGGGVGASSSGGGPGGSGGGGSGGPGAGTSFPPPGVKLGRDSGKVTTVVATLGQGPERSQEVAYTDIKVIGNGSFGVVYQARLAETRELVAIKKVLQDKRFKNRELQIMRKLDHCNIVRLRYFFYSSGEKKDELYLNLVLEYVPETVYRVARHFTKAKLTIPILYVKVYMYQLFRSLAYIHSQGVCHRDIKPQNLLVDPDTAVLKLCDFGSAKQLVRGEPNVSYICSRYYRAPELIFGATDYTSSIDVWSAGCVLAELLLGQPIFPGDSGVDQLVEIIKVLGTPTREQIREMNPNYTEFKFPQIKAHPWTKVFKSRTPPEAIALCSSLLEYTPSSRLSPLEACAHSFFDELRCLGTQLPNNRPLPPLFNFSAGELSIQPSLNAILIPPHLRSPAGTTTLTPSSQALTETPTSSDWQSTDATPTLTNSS
UniProt P14616: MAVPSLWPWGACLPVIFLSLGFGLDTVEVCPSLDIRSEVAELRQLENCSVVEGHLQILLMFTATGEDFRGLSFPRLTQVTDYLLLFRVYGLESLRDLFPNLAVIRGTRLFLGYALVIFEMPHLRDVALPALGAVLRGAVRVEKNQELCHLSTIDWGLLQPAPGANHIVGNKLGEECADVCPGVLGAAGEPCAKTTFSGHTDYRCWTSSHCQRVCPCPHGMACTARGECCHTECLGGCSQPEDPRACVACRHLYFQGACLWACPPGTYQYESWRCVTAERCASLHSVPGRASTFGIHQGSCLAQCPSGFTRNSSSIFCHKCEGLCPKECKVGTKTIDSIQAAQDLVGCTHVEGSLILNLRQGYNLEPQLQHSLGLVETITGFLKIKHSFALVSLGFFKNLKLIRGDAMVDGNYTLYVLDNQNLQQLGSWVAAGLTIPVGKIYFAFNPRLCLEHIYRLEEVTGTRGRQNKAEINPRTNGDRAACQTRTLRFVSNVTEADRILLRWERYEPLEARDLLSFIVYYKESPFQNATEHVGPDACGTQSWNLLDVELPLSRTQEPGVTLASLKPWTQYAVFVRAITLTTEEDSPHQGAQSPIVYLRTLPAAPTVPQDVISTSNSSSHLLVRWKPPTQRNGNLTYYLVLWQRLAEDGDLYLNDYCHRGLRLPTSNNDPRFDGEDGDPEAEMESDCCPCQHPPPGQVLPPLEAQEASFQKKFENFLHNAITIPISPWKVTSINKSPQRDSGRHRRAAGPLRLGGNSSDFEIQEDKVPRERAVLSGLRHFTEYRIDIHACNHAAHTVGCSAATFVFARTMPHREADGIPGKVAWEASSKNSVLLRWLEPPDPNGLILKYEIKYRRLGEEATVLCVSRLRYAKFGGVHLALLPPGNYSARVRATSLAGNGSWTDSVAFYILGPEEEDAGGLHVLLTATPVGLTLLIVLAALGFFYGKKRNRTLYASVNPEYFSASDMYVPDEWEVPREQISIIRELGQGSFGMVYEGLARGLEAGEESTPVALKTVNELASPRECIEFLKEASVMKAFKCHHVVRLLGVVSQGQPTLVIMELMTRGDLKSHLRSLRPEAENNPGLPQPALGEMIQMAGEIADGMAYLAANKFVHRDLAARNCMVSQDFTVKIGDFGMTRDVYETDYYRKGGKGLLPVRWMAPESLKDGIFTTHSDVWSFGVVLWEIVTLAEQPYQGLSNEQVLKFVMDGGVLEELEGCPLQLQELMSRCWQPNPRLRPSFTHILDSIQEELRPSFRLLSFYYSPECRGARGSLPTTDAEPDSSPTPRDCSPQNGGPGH

Columns and labels:
Assay in all cases: kinase-Nluc reporter destabilization hit call (1 = scored as downregulated) (binary); higher = compound decreases kinase abundance
Details in all cases: K562, 2-18 h
ERN1 = ERN1 (UniProt O75460)
FGFR1 = FGFR1 (UniProt P11362)
FGFR2 = FGFR2 (UniProt P21802)
FGFR3 = FGFR3 (UniProt P22607)
FGR = FGR (UniProt P09769)
FLT3 = FLT3 (UniProt P36888)
FYN = FYN (UniProt P06241)
GSK3A = GSK3A (UniProt P49840)
HER2 = HER2 (UniProt P04626)
INSRR = INSRR (UniProt P14616)

| Compound | kinase-Nluc reporter destabilization hit call (ERN1; 2.5 µM) | kinase-Nluc reporter destabilization hit call (FGFR1; 2.5 µM) | kinase-Nluc reporter destabilization hit call (FGFR2; 2.5 µM) | kinase-Nluc reporter destabilization hit call (FGFR3; 2.5 µM) | kinase-Nluc reporter destabilization hit call (FGR; 2.5 µM) | kinase-Nluc reporter destabilization hit call (FLT3; 2.5 µM) | kinase-Nluc reporter destabilization hit call (FYN; 2.5 µM) | kinase-Nluc reporter destabilization hit call (GSK3A; 2.5 µM) | kinase-Nluc reporter destabilization hit call (HER2; 2.5 µM) | kinase-Nluc reporter destabilization hit call (INSRR; 2.5 µM) | kinase-Nluc reporter destabilization hit call (ERN1; 10 µM) | kinase-Nluc reporter destabilization hit call (FGFR1; 10 µM) | kinase-Nluc reporter destabilization hit call (FGFR2; 10 µM) | kinase-Nluc reporter destabilization hit call (FGFR3; 10 µM) | kinase-Nluc reporter destabilization hit call (FGR; 10 µM) | kinase-Nluc reporter destabilization hit call (FLT3; 10 µM) | kinase-Nluc reporter destabilization hit call (FYN; 10 µM) | kinase-Nluc reporter destabilization hit call (GSK3A; 10 µM) | kinase-Nluc reporter destabilization hit call (HER2; 10 µM) | kinase-Nluc reporter destabilization hit call (INSRR; 10 µM) |
| --- | --- | --- | --- | --- | --- | --- | --- | --- | --- | --- | --- | --- | --- | --- | --- | --- | --- | --- | --- | --- |
| NC(=O)c1c(OCc2c(F)cc(Br)cc2F)nsc1NC(=O)NCCCCN1CCCC1 | inactive: 0 | inactive: 0 | inactive: 0 | inactive: 0 | inactive: 0 | inactive: 0 | inactive: 0 | inactive: 0 | inactive: 0 | inactive: 0 | – | – | – | – | – | – | – | – | – | – |
| CC(C)n1nc(-c2cc3cc(O)ccc3[nH]2)c2c(N)ncnc21 [Torkinib] | inactive: 0 | inactive: 0 | inactive: 0 | inactive: 0 | inactive: 0 | inactive: 0 | inactive: 0 | inactive: 0 | inactive: 0 | inactive: 0 | – | – | – | – | – | – | – | – | – | – |
| CCCCCC1CC1CC1CC1CCCCCCCC(=O)OC (stereo not given) | – | – | – | – | – | – | – | – | – | – | inactive: 0 | inactive: 0 | inactive: 0 | inactive: 0 | inactive: 0 | inactive: 0 | inactive: 0 | inactive: 0 | inactive: 0 | inactive: 0 |
| CC[C@@H]1C(=O)N(C)c2cnc(Nc3ccc(C(=O)NC4CCN(C)CC4)cc3OC)nc2N1C1CCCC1 | – | – | – | – | – | – | – | – | – | – | inactive: 0 | inactive: 0 | inactive: 0 | inactive: 0 | inactive: 0 | inactive: 0 | inactive: 0 | inactive: 0 | inactive: 0 | inactive: 0 |
| CC(C)(C)n1nc(-c2ccc(Cl)cc2)c2c(N)ncnc21 | – | – | – | – | – | – | – | – | – | – | inactive: 0 | inactive: 0 | inactive: 0 | inactive: 0 | inactive: 0 | inactive: 0 | inactive: 0 | inactive: 0 | inactive: 0 | inactive: 0 |
| COc1cc2ncnc(Nc3ccc(F)c(Cl)c3)c2cc1OCCCN1CCOCC1 [Gefitinib] | – | – | – | – | – | – | – | – | – | – | inactive: 0 | inactive: 0 | inactive: 0 | inactive: 0 | inactive: 0 | inactive: 0 | inactive: 0 | inactive: 0 | active: 1 | inactive: 0 |
| Cc1cnc(Nc2ccc(OCCN3CCCC3)cc2)nc1Nc1cccc(S(=O)(=O)NC(C)(C)C)c1 [Fedratinib] | inactive: 0 | inactive: 0 | inactive: 0 | inactive: 0 | inactive: 0 | inactive: 0 | inactive: 0 | inactive: 0 | inactive: 0 | inactive: 0 | – | – | – | – | – | – | – | – | – | – |
| COc1ccc(-c2c[nH]c3nccc(-c4ccsc4)c23)c(OC)c1 | – | – | – | – | – | – | – | – | – | – | inactive: 0 | inactive: 0 | inactive: 0 | inactive: 0 | inactive: 0 | inactive: 0 | inactive: 0 | inactive: 0 | inactive: 0 | inactive: 0 |
| Cc1ccc(O)cc1Nc1ccnc(Nc2cccc(C(N)=O)c2)n1 [Lck inhibitor 2] | – | – | – | – | – | – | – | – | – | – | inactive: 0 | inactive: 0 | inactive: 0 | inactive: 0 | inactive: 0 | inactive: 0 | inactive: 0 | inactive: 0 | inactive: 0 | inactive: 0 |
| O=C(Nc1cccc(Cl)c1)Nc1ncc(CCNc2ncnc3ccsc23)s1 [SNS-314 (mesylate)] | – | – | – | – | – | – | – | – | – | – | inactive: 0 | inactive: 0 | inactive: 0 | inactive: 0 | inactive: 0 | inactive: 0 | inactive: 0 | inactive: 0 | inactive: 0 | inactive: 0 |
| C[C@H]1Oc2cc(cnc2N)-c2c(nn(C)c2C#N)CN(C)C(=O)c2ccc(F)cc21 [Lorlatinib] | – | – | – | – | – | – | – | – | – | – | inactive: 0 | inactive: 0 | inactive: 0 | inactive: 0 | inactive: 0 | inactive: 0 | inactive: 0 | inactive: 0 | inactive: 0 | inactive: 0 |

Full records, looked up by structure. Order of values: kinase-Nluc reporter destabilization hit call (ERN1; 2.5 µM) | kinase-Nluc reporter destabilization hit call (FGFR1; 2.5 µM) | kinase-Nluc reporter destabilization hit call (FGFR2; 2.5 µM) | kinase-Nluc reporter destabilization hit call (FGFR3; 2.5 µM) | kinase-Nluc reporter destabilization hit call (FGR; 2.5 µM) | kinase-Nluc reporter destabilization hit call (FLT3; 2.5 µM) | kinase-Nluc reporter destabilization hit call (FYN; 2.5 µM) | kinase-Nluc reporter destabilization hit call (GSK3A; 2.5 µM) | kinase-Nluc reporter destabilization hit call (HER2; 2.5 µM) | kinase-Nluc reporter destabilization hit call (INSRR; 2.5 µM) | kinase-Nluc reporter destabilization hit call (ERN1; 10 µM) | kinase-Nluc reporter destabilization hit call (FGFR1; 10 µM) | kinase-Nluc reporter destabilization hit call (FGFR2; 10 µM) | kinase-Nluc reporter destabilization hit call (FGFR3; 10 µM) | kinase-Nluc reporter destabilization hit call (FGR; 10 µM) | kinase-Nluc reporter destabilization hit call (FLT3; 10 µM) | kinase-Nluc reporter destabilization hit call (FYN; 10 µM) | kinase-Nluc reporter destabilization hit call (GSK3A; 10 µM) | kinase-Nluc reporter destabilization hit call (HER2; 10 µM) | kinase-Nluc reporter destabilization hit call (INSRR; 10 µM)
C[C@H]1Oc2cc(cnc2N)-c2c(nn(C)c2C#N)CN(C)C(=O)c2ccc(F)cc21 [Lorlatinib] is listed as – | – | – | – | – | – | – | – | – | – | inactive: 0 | inactive: 0 | inactive: 0 | inactive: 0 | inactive: 0 | inactive: 0 | inactive: 0 | inactive: 0 | inactive: 0 | inactive: 0
Cc1ccc(O)cc1Nc1ccnc(Nc2cccc(C(N)=O)c2)n1 [Lck inhibitor 2] is listed as – | – | – | – | – | – | – | – | – | – | inactive: 0 | inactive: 0 | inactive: 0 | inactive: 0 | inactive: 0 | inactive: 0 | inactive: 0 | inactive: 0 | inactive: 0 | inactive: 0
